These are yes or no findings as the source states them, for the method shown. Binding seen in cells or lysates may run through a third protein. Some results given as binding are weak or reduced against the parent protein; the word gives no strength.
Experiments:
[1] = target: T1, biotin-GX1 (biotinylated peptide GX1); assay: pull-down; called co-immunoprecipitation by the paper: biotin-GX1 or biotin-URP on Dynabeads M-280 Streptavidin, co-HUVEC lysate, eluates on SDS-PAGE, blot with TGM2 antibody; only the target purified
T1 sequence (peptide, biotinylated (position not stated); cyclic peptide): CGNSNPKSC

[2] = target: T2, biotin-URP (biotinylated unrelated peptide); assay: as above
T2 sequence (peptide, biotinylated (position not stated); cyclo-peptide): CNKSPSGNC

binding [1]: binds
binding [2]: no binding
B1: transglutaminase-2 (TGM2) (protein, UniProt P21980 1-687)
chain: MAEELVLERCDLELETNGRDHHTADLCREKLVVRRGQPFWLTLHFEGRNYEASVDSLTFSVVTGPAPSQEAGTKARFPLRDAVEEGDWTATVVDQQDCTLSLQLTTPANAPIGLYRLSLEASTGYQGSSFVLGHFILLFNAWCPADAVYLDSEEERQEYVLTQQGFIYQGSAKFIKNIPWNFGQFEDGILDICLILLDVNPKFLKNAGRDCSRRSSPVYVGRVVSGMVNCNDDQGVLLGRWDNNYGDGVSPMSWIGSVDILRRWKNHGCQRVKYGQCWVFAAVACTVLRCLGIPTRVVTNYNSAHDQNSNLLIEYFRNEFGEIQGDKSEMIWNFHCWVESWMTRPDLQPGYEGWQALDPTPQEKSEGTYCCGPVPVRAIKEGDLSTKYDAPFVFAEVNADVVDWIQQDDGSVHKSINRSLIVGLKISTKSVGRDEREDITHTYKYPEGSSEEREAFTRANHLNKLAEKEETGMAMRIRVGQSMNMGSDFDVFAHITNNTAEEYVCRLLLCARTVSYNGILGPECGTKYLLNLNLEPFSEKSVPLCILYEKYRDCLTESNLIKVRALLVEPVINSYLLAERDLYLENPEIKIRILGEPKQKRKLVAEVSLQNPLPVALEGCTFTVEGAGLTEEQKTVEIPDPVEAGEEVKVRMDLLPLHMGLHKLVVNFESDKLKAVKGFRNVIIGPA

From paper PMC5962530
